From PubChem BioAssay AID504467 (National Center for Advancing Translational Sciences (NCATS), 2011)
The whole screen tested about 330,000 compounds, of which about 7,700 (2.3%) were called active. Inconclusive results, whose numbers are uncertain, are shown with a selection of clear calls. Calls follow the shape of the dose curve; as a rule, active = well fitted inhibition curve with a large enough effect; inconclusive = small, poorly fitted or top-dose-only effect, or effect the other way; inactive = flat fitted curve, though single readings scatter. Where the call is inconclusive, the potency comes from a doubtful curve fit.

Experiment: qHTS screen for small molecules that inhibit ELG1-dependent DNA repair in human embryonic kidney (HEK293T) cells expressing luciferase-tagged ELG1; also: nearly all actives have a fitted effect of over 55% in size
Conditions: HEK293T ELG1-luciferase reporter, luminescence, 16 h, DNA damage induced by 5-fluorouridine; activity change, negative = inhibition: at 46.1 µM (top of the series)
Outline: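 Step one: seed 2,000 cells per well. Step two: pin-transfer compound or DMSO alongside 5-fluorouridine. Step three: incubate 16 hr, 37 °C, 5% CO2. Step four: add ONE-Glo, wait 30 min, read luminescence.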
% is scaled to controls: 0 for no effect and ±100 for the full control effect; potency is read from the fitted curve at half-maximal effect.

Question: With `COc1ccc(N2CCC(CNC(=S)Nc3cc(C)cc(C)c3)C2)cc1` (centres undefined) as the compound, how does the Potency read?
Answer: inconclusive: 29.1 µM [inhibitor, partial curve, poor fit]

Question: With `CCCCCn1c(CNC(=O)c2cccs2)nc2ccccc21` as the compound, how does the Potency read?
Answer: inconclusive: 29.1 µM [inhibitor, single point]

Question: For `CCOc1ccc(NC(=O)Nc2ccc(NC(C)=O)cc2)cc1`, which “activity change, negative = inhibition” value is on record?
Answer: inactive: 21.8%

Question: With `COc1ccc(-c2noc(-c3cccc(OC)c3OC)n2)cc1OC` as the compound, how does the Potency read?
Answer: inconclusive: 4.11 µM [activator, partial curve]

Question: For `CC(C)(C)C(=O)NC(=S)Nc1sc2c(c1C(N)=O)CCC2`, which Potency is on record?
Answer: inconclusive: 14.6 µM [activator, partial curve]

Question: Which Potency does the source give for `CN(C)CCCN1C(=O)c2cccc3c(Br)ccc(c23)C1=O` here?
Answer: inconclusive: 10.3 µM [activator, partial curve, poor fit]

Question: For `COc1ccccc1OCC(=O)NC1CC(C)(C)NC(C)(C)C1`, which “activity change, negative = inhibition” value is on record?
Answer: inactive: -3.52%

Question: Which Potency does the source give for `O=C(Cc1ccccc1)Nc1ccc(N2CCCCC2)cc1` here?
Answer: inconclusive: 11.6 µM [activator, partial curve]

Question: Which Potency does the source give for `CCO[C@H]1OC(C(=O)N2CCN(Cc3ccc4c(c3)OCO4)CC2)=C[C@@H](c2ccc3c(c2)OCO3)[C@@H]1CCCO` here?
Answer: inconclusive: 16.4 µM [inhibitor, single point]

Question: With `CCOc1ccccc1NC(=O)C(c1ccccc1)N1CCN(C(=O)c2ccco2)CC1` (centres undefined) as the compound, how does the “activity change, negative = inhibition” value read?
Answer: inactive: -22.3%

Question: With `COc1ccccc1CNC(=O)c1nn(C)c2c1CS(=O)(=O)c1ccccc1-2` as the compound, how does the Potency read?
Answer: inconclusive: 20.6 µM [inhibitor, single point]

Question: For `CCC1CCC(NC(=O)Nc2cccc(OC)c2)CC1` (centres undefined), which Potency is on record?
Answer: inconclusive: 9.2 µM [activator, partial curve]

Question: With `Cc1cccc(-n2c(C)cc(C)c(C#N)c2=O)c1` as the compound, how does the Potency read?
Answer: inconclusive: 29.1 µM [activator, partial curve, poor fit]

Question: Which Potency does the source give for `S=c1[nH]nc(-c2cc3c(s2)-c2ccccc2CC3)o1` here?
Answer: inconclusive: 20.6 µM [activator, single point]

Question: For `COc1cc(/C=N/n2cnnc2)ccc1Oc1nc(Cl)ncc1F`, which Potency is on record?
Answer: inconclusive: 25.9 µM [inhibitor, partial curve, poor fit]

Question: For `N#Cc1cn(-c2ccccc2)nc1-c1cc2ccccc2oc1=O`, which Potency is on record?
Answer: inconclusive: 1.3 µM [activator, partial curve, poor fit]

Question: Which Potency does the source give for `O=C(CCCN1C(=O)c2ccccc2C1=O)N1CCCCC1` here?
Answer: inconclusive: 18.4 µM [activator, single point]

Question: With `Cc1cccc(CCN2CCN=C2Nc2ccccc2)c1` as the compound, how does the “activity change, negative = inhibition” value read?
Answer: inactive: 13.3%

Question: Which “activity change, negative = inhibition” value does the source give for `Cc1ccc(S(=O)(=O)N2CCN(c3ccc(C(F)(F)F)cc3[N+](=O)[O-])CC2)cc1` here?
Answer: inactive: -0.0594%

Question: For `COc1ccc(OC)c(N(CC(=O)Nc2ccccc2)S(=O)(=O)c2ccccc2)c1`, which “activity change, negative = inhibition” value is on record?
Answer: inactive: -29%

Question: For `CCN(CC)C(=O)CSc1nc(COc2ccccc2)nc2ccccc12`, which Potency is on record?
Answer: active: 23.1 µM

Question: With `O=C(O)c1cccc(S(=O)(=O)N2CCc3ccccc3C2)c1` as the compound, how does the “activity change, negative = inhibition” value read?
Answer: inactive: 5.28%

Question: With `Cc1noc(C)c1S(=O)(=O)N1CCC(C(=O)N2CCN(c3ccc(Cl)cc3)CC2)CC1` as the compound, how does the Potency read?
Answer: inconclusive: 16.4 µM [inhibitor, partial curve]

Question: For `O=C(CCCCCn1c(=S)[nH]c2ccccc2c1=O)NCc1ccc2c(c1)OCO2`, which Potency is on record?
Answer: inconclusive: 0.92 µM [activator, full curve, poor fit]

Question: With `O=C(Nc1ccc(F)c([N+](=O)[O-])c1)c1ccc2c(c1)C(=O)OC2=O` as the compound, how does the “activity change, negative = inhibition” value read?
Answer: inactive: 13.4%

Question: With `COc1cccc(CC(NC(C)=O)C(=O)NC2CCN(C(=O)c3ccncc3)CC2)c1OC` (centres undefined) as the compound, how does the “activity change, negative = inhibition” value read?
Answer: inactive: 14.3%

Question: For `CCCCOc1ccc(CN2CCCCC2)cc1`, which “activity change, negative = inhibition” value is on record?
Answer: inactive: 28.8%

Question: With `Cc1ccc(C(=O)OCC(=O)Nc2ccc3c(c2)OCO3)o1` as the compound, how does the Potency read?
Answer: inconclusive: 18.4 µM [activator, single point]

Question: Which Potency does the source give for `Cc1cccc(C)c1OCCOC(=O)c1cccc(S(=O)(=O)N2CCOCC2)c1` here?
Answer: inconclusive: 29.1 µM [inhibitor, single point]

Question: Which Potency does the source give for `C(=N\N=C\c1cccs1)/c1cccs1` here?
Answer: inconclusive: 14.6 µM [activator, partial curve]

Question: For `Cc1ccc(OCC(=O)OC(C)C(=O)NC2CCCCC2C)cc1C` (centres undefined), which Potency is on record?
Answer: inconclusive: 23.1 µM [activator, single point]

Question: Which “activity change, negative = inhibition” value does the source give for `CN(C)CCNc1ncnc2c1sc1nc(N3CCOCC3)c3c(c12)CC(C)(C)SC3` here?
Answer: inactive: 0.149%

Question: For `COc1cc(S(=O)(=O)Nc2cc(C)cc(C)c2)ccc1F`, which Potency is on record?
Answer: inconclusive: 20.6 µM [inhibitor, partial curve, poor fit]

Question: Which “activity change, negative = inhibition” value does the source give for `O=C(COC(=O)c1ccc(Cl)cc1Cl)Nc1cccc(S(=O)(=O)NC2=NCCC2)c1` here?
Answer: inactive: -9.27%

Question: Which Potency does the source give for `CC1(C)C(=O)OC(c2ccco2)C(C)(C)C1=O` (centres undefined) here?
Answer: inconclusive: 32.6 µM [activator, partial curve, poor fit]

Question: With `OC(CN1CCN(c2ccccc2)CC1)Cn1c2ccccc2c2ccccc21` (centres undefined) as the compound, how does the Potency read?
Answer: inconclusive: 20.6 µM [inhibitor, single point]

Question: Which Potency does the source give for `O=C(O)Cn1cc(/C=C2\SC(=O)N(c3ccccc3)C2=O)c2ccccc21` here?
Answer: inconclusive: 20.6 µM [activator, single point]

Question: For `COc1cc(/C=C/c2cc[n+](C)cc2)ccc1OCC(=O)Nc1ccccc1`, which Potency is on record?
Answer: inconclusive: 14.6 µM [activator, partial curve, poor fit]

Question: With `CCCNc1nc(Nc2ccc(C)c(Cl)c2)c2cnn(C)c2n1` as the compound, how does the Potency read?
Answer: active: 14.6 µM

Question: With `CCOC(=O)c1ccccc1NC1c2ccccc2C(=O)N1c1ccc(C)cn1` (centres undefined) as the compound, how does the Potency read?
Answer: inconclusive: 14.6 µM [activator, partial curve]

Question: With `Cc1cc(OCC(=O)Nc2ccncc2)ccc1Br` as the compound, how does the Potency read?
Answer: inconclusive: 5.17 µM [inhibitor, partial curve]

Question: Which “activity change, negative = inhibition” value does the source give for `Cc1ccc(NC(=S)Nn2cnnc2)cc1` here?
Answer: inactive: 18.9%

Question: With `COC(=O)c1ccc([N+](=O)[O-])c(CS(=O)(=O)c2ccc(Cl)cc2)c1` as the compound, how does the Potency read?
Answer: inconclusive: 29.1 µM [inhibitor, single point]

Question: For `CCc1ccc(Nc2nnc(SCC(=O)NCCN3C(=O)CSC3=O)s2)cc1`, which Potency is on record?
Answer: inconclusive: 20.6 µM [activator, partial curve, poor fit]

Question: With `Cc1nc(NC(=O)COC(=O)[C@@H](NC(=O)c2ccco2)C(C)C)c(Cl)cc1Cl` as the compound, how does the “activity change, negative = inhibition” value read?
Answer: inactive: -18.4%

Question: With `COc1ccccc1C(=O)NNC(=O)c1cccc([N+](=O)[O-])c1` as the compound, how does the Potency read?
Answer: inconclusive: 20.6 µM [activator, single point]

Question: With `COc1ccc(-c2sc3ccccc3c2/C=C/c2ccc(N)cc2)cc1` as the compound, how does the Potency read?
Answer: inconclusive: 20.6 µM [activator, partial curve]

Question: With `O=C(c1ccc(C(F)(F)F)cc1)C1CCCN(C(=O)CCc2ccncc2)C1` (centres undefined) as the compound, how does the Potency read?
Answer: inconclusive: 8.2 µM [inhibitor, partial curve, poor fit]

Question: For `COc1ccc(C(c2c(O)ccc3ccccc23)N2CCOCC2)c(OC)c1` (centres undefined), which Potency is on record?
Answer: inconclusive: 11.2 µM [activator, partial curve]

Question: With `CCOC(=O)N1CCN(C(=O)c2ccc3nc(N4CCCCC4)sc3c2)CC1` as the compound, how does the “activity change, negative = inhibition” value read?
Answer: inactive: 14%

Question: Which “activity change, negative = inhibition” value does the source give for `COc1ccc(CC(=O)NCC2CCCN(Cc3cc(OC)cc(OC)c3)C2)cc1` (centres undefined) here?
Answer: inactive: 1.66%

Question: For `CN(Cc1ccccc1)C(=O)c1ccco1`, which “activity change, negative = inhibition” value is on record?
Answer: inactive: 20.4%

Question: With `CC(Oc1ccc(Cl)cc1Cl)c1nc(-c2ccc(NC(=O)c3cccnc3)cc2)no1` (centres undefined) as the compound, how does the Potency read?
Answer: inconclusive: 11.2 µM [inhibitor, partial curve, poor fit]

Question: With `CCOc1ccc(/C=C2/Sc3ccc(C(=O)N4CCN(C(=O)c5ccco5)CC4)cc3N(C)C2=O)cc1OC` as the compound, how does the Potency read?
Answer: active: 20.6 µM

Question: Which Potency does the source give for `COCCn1c(=S)[nH]c2cc(C(=O)N3CCCC(C)C3)ccc2c1=O` (centres undefined) here?
Answer: inconclusive: 1.16 µM [inhibitor, full curve]

Question: Which Potency does the source give for `O=C(CN1C(=O)COc2ccccc21)N(Cc1cccnc1)Cc1ccccc1F` here?
Answer: inconclusive: 23.1 µM [inhibitor, single point]

Question: For `Cc1nc(N2CCN(c3ccccc3)CC2)nc2c1C(=O)CCC2`, which Potency is on record?
Answer: inconclusive: 20.6 µM [inhibitor, single point]

Question: For `O=C(NN(c1ccccc1)c1ccccc1)c1ccccc1F`, which Potency is on record?
Answer: inconclusive: 23.1 µM [activator, partial curve, poor fit]

Question: Which Potency does the source give for `Cc1cc(N/C=C/C(=O)c2cccs2)ccc1F` here?
Answer: inconclusive: 4.61 µM [activator, partial curve]

Question: With `C=CCOC(=O)C1=C(C)NC(C)=C(C(=O)OCC=C)C1c1ccco1` as the compound, how does the Potency read?
Answer: inconclusive: 29.1 µM [inhibitor, partial curve, poor fit]

Question: Which Potency does the source give for `C/C(CC(=O)Nc1ccc2c(c1)OCCO2)=N\NC(=O)c1ccc([N+](=O)[O-])cc1Cl` here?
Answer: inconclusive: 18.3 µM [activator, single point]

Question: For `COc1ccccc1N1CCN(CC(=O)Nc2ccc(C)c(F)c2)CC1`, which Potency is on record?
Answer: inconclusive: 6.51 µM [inhibitor, partial curve, poor fit]

Question: For `Cc1ccc(C)c(NC(=O)Cn2c(=O)n(-c3ccc(CC(=O)NCC4CCCO4)cc3)c(=O)c3ccccc32)c1` (centres undefined), which “activity change, negative = inhibition” value is on record?
Answer: inactive: 2.33%

Question: With `COc1ccc2nc(N3CCCCC3)c(C#N)cc2c1` as the compound, how does the Potency read?
Answer: inconclusive: 20.6 µM [activator, partial curve]

Question: Which Potency does the source give for `COCCNC(=S)N/N=C(\C)c1ccc2cc(OC)ccc2c1` here?
Answer: inconclusive: 18.4 µM [inhibitor, single point]

Question: Which Potency does the source give for `O=C(NCCO)c1c(O)c2cccc3c2n(c1=O)CC3` here?
Answer: inconclusive: 20.6 µM [activator, single point]

Question: Which Potency does the source give for `COc1ccc(/C=C/C(=O)c2c(C)nc3ccccn23)cc1` here?
Answer: inconclusive: 11.6 µM [activator, partial curve]

Question: Which “activity change, negative = inhibition” value does the source give for `CC(=O)Nc1ccc(O)c(-c2nc3ccccc3s2)c1` here?
Answer: inactive: 0%

Question: Which Potency does the source give for `CC1CCC(C(C)C)C(OC(=O)C2=C3c4ccccc4S(=O)(=O)N3CC2)C1` (centres undefined) here?
Answer: inconclusive: 20.6 µM [inhibitor, partial curve]
